Measured values reported in the supplement of paper PMC12067093, “Discovery and optimisation of a covalent ligand for TRIM25 and its application to targeted protein ubiquitination” (Chemical Science, 2025).
This is one part of the list.

By UniProt entry, the sequences of proteins in these tests, tags left out. Where a name states a change or a piece, a line headed by the entry shows the natural chain unless it says otherwise.
UniProt P50991: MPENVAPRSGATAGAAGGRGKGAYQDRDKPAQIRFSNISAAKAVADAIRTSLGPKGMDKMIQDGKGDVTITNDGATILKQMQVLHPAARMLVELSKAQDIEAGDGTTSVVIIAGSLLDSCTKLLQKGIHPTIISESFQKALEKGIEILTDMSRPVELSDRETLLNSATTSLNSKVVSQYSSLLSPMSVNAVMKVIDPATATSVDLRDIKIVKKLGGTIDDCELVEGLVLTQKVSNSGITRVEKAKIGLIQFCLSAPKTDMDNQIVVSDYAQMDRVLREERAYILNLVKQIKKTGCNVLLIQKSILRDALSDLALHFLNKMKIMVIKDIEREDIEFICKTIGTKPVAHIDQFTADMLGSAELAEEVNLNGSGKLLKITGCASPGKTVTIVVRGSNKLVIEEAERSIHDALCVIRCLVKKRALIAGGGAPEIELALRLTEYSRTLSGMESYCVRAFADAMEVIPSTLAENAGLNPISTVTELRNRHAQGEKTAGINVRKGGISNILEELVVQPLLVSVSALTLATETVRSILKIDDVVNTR
UniProt Q92851: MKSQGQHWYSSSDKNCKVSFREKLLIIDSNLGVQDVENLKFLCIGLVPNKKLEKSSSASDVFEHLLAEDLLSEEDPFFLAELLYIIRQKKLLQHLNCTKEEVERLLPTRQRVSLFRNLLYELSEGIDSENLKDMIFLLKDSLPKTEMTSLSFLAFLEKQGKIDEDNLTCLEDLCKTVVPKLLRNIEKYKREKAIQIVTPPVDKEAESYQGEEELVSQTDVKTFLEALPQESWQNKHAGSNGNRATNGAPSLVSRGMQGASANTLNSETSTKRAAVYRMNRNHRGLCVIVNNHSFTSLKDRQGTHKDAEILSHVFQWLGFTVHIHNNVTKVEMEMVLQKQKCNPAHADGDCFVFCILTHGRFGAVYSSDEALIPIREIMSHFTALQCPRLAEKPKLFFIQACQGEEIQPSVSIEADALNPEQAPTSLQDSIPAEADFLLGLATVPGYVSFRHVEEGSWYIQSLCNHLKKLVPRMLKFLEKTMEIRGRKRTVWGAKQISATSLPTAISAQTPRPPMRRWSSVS
UniProt P49589: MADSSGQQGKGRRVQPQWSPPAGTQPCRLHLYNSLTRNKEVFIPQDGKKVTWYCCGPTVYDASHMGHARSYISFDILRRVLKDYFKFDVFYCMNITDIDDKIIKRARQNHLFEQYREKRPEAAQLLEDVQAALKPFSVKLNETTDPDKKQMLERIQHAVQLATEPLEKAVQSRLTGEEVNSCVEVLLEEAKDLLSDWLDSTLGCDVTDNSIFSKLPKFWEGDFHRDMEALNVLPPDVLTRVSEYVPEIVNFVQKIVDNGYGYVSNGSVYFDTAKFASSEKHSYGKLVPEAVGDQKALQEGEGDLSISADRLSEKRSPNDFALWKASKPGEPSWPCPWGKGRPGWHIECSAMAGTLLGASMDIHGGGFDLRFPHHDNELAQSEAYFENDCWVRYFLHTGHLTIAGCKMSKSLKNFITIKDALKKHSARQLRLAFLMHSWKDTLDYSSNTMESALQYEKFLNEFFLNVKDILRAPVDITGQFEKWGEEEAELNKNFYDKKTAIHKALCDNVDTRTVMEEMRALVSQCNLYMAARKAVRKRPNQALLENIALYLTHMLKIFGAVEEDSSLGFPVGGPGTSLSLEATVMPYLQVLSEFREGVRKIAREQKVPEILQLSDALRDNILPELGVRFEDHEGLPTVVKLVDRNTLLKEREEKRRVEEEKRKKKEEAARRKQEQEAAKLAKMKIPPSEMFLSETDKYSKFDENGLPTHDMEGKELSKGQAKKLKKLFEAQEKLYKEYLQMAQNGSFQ
UniProt Q7Z3E2: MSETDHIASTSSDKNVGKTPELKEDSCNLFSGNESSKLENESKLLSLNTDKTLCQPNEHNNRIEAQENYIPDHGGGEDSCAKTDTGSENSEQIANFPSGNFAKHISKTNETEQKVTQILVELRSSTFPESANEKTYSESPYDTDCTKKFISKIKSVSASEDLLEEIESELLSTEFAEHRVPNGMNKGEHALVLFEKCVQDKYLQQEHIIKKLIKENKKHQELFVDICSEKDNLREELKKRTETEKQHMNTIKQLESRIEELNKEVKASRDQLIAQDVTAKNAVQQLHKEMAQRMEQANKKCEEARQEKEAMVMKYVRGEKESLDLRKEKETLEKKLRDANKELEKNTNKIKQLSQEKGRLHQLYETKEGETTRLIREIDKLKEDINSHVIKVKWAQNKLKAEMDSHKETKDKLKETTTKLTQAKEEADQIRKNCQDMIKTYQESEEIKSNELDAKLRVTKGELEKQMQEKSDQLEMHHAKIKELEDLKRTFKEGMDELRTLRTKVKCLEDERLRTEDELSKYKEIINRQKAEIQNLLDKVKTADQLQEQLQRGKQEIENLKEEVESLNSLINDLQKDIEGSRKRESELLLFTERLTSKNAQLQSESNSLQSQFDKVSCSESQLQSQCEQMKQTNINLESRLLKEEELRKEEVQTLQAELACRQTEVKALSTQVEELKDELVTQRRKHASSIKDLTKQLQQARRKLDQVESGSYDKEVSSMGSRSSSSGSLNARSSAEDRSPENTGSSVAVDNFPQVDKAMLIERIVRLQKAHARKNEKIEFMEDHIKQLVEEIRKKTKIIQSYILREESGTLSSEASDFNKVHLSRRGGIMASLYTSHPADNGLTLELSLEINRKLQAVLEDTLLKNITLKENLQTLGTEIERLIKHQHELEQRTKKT
UniProt Q9H257: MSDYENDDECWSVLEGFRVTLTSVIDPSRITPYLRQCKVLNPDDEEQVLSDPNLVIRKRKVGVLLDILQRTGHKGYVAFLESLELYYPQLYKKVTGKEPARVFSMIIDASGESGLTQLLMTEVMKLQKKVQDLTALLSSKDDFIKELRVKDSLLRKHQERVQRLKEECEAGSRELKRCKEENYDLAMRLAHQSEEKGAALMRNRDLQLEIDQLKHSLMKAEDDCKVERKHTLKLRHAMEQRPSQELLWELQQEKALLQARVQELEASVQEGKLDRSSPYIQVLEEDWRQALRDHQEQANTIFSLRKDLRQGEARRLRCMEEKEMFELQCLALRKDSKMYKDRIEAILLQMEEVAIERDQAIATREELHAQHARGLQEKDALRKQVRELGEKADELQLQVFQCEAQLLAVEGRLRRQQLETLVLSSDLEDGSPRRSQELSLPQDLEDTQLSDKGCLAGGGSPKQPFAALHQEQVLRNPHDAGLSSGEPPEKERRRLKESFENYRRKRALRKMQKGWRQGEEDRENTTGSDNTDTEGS
UniProt P04040: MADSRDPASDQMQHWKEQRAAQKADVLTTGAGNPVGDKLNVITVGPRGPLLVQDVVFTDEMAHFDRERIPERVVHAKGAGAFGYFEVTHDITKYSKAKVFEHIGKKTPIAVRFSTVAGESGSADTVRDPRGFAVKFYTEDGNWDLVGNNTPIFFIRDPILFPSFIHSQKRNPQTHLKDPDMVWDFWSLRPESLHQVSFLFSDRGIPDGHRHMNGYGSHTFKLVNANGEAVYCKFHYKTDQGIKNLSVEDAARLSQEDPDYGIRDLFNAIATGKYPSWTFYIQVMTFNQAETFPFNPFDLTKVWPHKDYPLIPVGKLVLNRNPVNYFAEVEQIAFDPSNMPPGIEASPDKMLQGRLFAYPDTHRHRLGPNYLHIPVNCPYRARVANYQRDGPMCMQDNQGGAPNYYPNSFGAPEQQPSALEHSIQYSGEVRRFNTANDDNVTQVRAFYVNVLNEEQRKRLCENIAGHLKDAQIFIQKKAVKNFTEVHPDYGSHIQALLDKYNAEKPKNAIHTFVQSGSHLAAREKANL
UniProt P78371: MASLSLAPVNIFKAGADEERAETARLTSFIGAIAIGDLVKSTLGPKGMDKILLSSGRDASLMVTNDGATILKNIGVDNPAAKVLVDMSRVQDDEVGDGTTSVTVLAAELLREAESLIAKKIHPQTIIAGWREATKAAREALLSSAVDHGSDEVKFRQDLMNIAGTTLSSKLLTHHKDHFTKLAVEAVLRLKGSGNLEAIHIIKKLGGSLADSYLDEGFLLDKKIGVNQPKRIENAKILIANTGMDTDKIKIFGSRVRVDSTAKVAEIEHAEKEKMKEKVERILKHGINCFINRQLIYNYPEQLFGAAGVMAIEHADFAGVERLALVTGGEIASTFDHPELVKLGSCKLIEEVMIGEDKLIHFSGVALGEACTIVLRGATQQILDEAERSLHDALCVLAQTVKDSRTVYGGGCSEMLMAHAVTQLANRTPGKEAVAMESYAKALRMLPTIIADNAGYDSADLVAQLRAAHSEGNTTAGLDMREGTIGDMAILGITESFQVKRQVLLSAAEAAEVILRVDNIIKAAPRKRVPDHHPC
UniProt Q9Y6W3: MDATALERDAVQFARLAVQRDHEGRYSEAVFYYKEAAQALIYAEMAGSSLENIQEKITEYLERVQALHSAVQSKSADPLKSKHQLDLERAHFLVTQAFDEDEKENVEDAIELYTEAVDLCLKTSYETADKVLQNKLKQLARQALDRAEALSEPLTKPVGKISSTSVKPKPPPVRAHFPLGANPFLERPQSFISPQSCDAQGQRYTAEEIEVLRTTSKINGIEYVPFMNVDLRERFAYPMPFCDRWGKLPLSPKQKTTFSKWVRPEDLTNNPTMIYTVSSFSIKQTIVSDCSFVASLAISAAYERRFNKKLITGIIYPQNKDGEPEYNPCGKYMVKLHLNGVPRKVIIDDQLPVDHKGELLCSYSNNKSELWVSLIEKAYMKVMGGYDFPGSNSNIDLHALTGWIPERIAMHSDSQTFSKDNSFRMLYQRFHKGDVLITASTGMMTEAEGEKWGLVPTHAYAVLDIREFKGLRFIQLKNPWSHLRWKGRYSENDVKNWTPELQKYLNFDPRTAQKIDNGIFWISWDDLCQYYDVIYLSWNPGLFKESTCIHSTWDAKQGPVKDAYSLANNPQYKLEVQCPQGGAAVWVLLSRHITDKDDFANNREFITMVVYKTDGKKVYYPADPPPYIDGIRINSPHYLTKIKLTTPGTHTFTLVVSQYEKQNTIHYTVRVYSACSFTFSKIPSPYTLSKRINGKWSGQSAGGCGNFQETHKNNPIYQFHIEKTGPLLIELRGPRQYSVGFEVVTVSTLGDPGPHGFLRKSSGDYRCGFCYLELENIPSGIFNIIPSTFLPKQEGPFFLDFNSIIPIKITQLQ
UniProt P47756, whole entry, looked up: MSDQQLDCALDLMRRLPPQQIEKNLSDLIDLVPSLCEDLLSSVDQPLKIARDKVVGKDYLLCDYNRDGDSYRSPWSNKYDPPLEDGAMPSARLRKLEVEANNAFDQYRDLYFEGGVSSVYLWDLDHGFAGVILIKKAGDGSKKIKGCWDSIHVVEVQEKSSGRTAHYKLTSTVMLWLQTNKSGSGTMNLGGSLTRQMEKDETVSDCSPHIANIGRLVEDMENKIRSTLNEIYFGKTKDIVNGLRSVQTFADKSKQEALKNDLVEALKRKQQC
UniProt Q8IX12: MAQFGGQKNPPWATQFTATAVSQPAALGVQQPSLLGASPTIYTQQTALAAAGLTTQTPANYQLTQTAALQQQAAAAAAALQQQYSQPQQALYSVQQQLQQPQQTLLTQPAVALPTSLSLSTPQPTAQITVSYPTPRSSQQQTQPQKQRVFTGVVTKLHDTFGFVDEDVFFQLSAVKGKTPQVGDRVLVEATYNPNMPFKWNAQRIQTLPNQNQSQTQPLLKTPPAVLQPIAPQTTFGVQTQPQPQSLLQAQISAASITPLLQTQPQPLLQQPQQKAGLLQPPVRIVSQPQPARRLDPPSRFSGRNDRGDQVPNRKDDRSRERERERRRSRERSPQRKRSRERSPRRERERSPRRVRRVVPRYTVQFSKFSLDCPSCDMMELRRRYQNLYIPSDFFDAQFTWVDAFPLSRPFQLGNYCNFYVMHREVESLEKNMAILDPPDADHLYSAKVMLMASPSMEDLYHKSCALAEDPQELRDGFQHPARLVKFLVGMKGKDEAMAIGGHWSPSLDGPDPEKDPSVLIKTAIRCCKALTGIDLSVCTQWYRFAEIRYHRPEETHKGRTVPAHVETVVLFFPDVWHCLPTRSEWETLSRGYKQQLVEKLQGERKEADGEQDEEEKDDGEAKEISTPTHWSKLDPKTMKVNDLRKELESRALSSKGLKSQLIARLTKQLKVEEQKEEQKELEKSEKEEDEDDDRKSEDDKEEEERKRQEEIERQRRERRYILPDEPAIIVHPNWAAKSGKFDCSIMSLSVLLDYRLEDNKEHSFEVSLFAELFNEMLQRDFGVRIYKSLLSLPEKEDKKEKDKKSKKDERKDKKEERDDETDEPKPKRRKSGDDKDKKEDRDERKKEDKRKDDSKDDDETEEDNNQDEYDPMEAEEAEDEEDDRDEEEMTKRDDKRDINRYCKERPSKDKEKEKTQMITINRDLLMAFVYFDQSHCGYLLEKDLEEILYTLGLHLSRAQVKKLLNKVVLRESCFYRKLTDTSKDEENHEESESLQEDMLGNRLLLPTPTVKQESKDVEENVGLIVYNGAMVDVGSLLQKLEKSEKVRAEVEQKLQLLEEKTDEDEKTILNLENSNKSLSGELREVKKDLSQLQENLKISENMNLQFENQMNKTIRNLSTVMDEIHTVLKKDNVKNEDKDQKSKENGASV

Compound: Cc1cc(ccc1-c1ccccc1)C(=O)N1CCCN(CC1)C(=O)CCl [compound 10]
Test: probe-labelled cysteine peptide fold change vs DMSO (competition) (log2 fold change); higher = less target engagement (more negative = stronger competition)
Details: 50 µM; THP-1; incubation time: 4 h
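Further: competitive profiling in live THP-1 cells: cysteine peptides tagged with an iodoacetamide desthiobiotin (IA-DTB) probe, intensity after compound treatment relative to DMSO-treated cells.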

Target	probe-labelled cysteine peptide fold change
CCT4_P50991_295_KTGCNVLLIQK (UniProt P50991)	0.0584
CCAR2_Q8N163_644_PRGEASEDLCEMALDPELLLLR (UniProt Q8N163)	0.512
CCNH_P51946_244_TCLSQLLDIMK (UniProt P51946)	-0.0332
CASP10_Q92851_341+350_CNPAHADGDCFVFCILTHGR (UniProt Q92851)	0.0374
CAPZA2_P47755_157_IDGQQTIIACIESHQFQAK (UniProt P47755)	0.155
CASP10_Q92851_97_LLQHLNCTK (UniProt Q92851)	-0.203
CASP8_Q14790_287_NGTHLDAGALTTTFEELHFEIKPHDDCTVEQIYEILK (UniProt Q14790)	-0.185
CASP3_P42574_264_KQIPCIVSMLTK (UniProt P42574)	-0.227
CARS_P49589_55_VTWYCCGPTVYDASHMGHAR (UniProt P49589)	-0.0376
CASP2_P42575_320_MFFIQACR (UniProt P42575)	-0.355
CCT4_P50991_252_IGLIQFCLSAPK (UniProt P50991)	-0.0885
CCS_O14618_113_CLIEGTIDGLEPGLHGLHVHQYGDLTNNCNSCGNHFNPDGASHGGPQDSDR (UniProt O14618)	-0.935
CCDC186_Q7Z3E2_80_IEAQENYIPDHGGGEDSCAK (UniProt Q7Z3E2)	-0.0852
CAPN15_O75808_101_GSCQEEAGPVR (UniProt O75808)	-0.316
CCT3_P49368_455_TLIQNCGASTIR (UniProt P49368)	0.0901
CARD9_Q9H257_329_EMFELQCLALR (UniProt Q9H257)	0.108
CARD19_Q96LW7_63_LCDLLSHLQR (UniProt Q96LW7)	-0.0424
CAT_P04040_460_RLCENIAGHLK (UniProt P04040)	0.021
CCT2_P78371_371_LIHFSGVALGEACTIVLR (UniProt P78371)	-0.0613

Looked up one by one from the list above:
Target	probe-labelled cysteine peptide fold change
CARD9_Q9H257_329_EMFELQCLALR (UniProt Q9H257)	0.108
CASP10_Q92851_97_LLQHLNCTK (UniProt Q92851)	-0.203

Going on with the list.

Target	probe-labelled cysteine peptide fold change
CASP4_P49662_217_SSDSTFLVLMSHGILEGICGTVHDEK (UniProt P49662)	0.00467
CAPN7_Q9Y6W3_242_FAYPMPFCDR (UniProt Q9Y6W3)	-0.0155
CCT5_P48643_429+440_VVYGGGAAEISCALAVSQEADKCPTLEQYAMR (UniProt P48643)	-0.342
CC2D1B_Q5T0F9_809_LENECEIR (UniProt Q5T0F9)	0.295
CCT5_P48643_302_ETGANLAICQWGFDDEANHLLLQNNLPAVR (UniProt P48643)	0.089
CARS_P49589_182_LTGEEVNSCVEVLLEEAK (UniProt P49589)	-0.461
CAPZB_P47756_8_SDQQLDCALDLMR (UniProt P47756)	0.237
CASP1_P29466_362_LIEHMQEYACSCDVEEIFR (UniProt P29466)	-0.155
CCDC58_Q4VC31_74_NCIAQTSAVVK (UniProt Q4VC31)	0.374
CASP7_P55210_246_GSWFVQALCSILEEHGK (UniProt P55210)	0.467
CCAR1_Q8IX12_376_FSLDCPSCDMMELR (UniProt Q8IX12)	-0.133
CCDC51_Q96ER9_331_TCSQMAGVVQLVK (UniProt Q96ER9)	-0.0554
CARNMT1_Q8N4J0_115_CIDHNQEILLTIVNDCIHMFENK (UniProt Q8N4J0)	0.0874
CCAR2_Q8N163_644_PLSSGGEEEEKPRGEASEDLCEMALDPELLLLRDDGEEEFAGAK (UniProt Q8N163)	0.167
CAPN7_Q9Y6W3_120_ENVEDAIELYTEAVDLCLK (UniProt Q9Y6W3)	0.358
CASP8AP2_Q9UKL3_270_DLSTGCGDGEPR (UniProt Q9UKL3)	-0.202
CCDC115_Q96NT0_68_SVGPLQYASHMEPQVCLHASEAQEGLQK (UniProt Q96NT0)	0.0895
CARS_P49589_525_ALVSQCNLYMAAR (UniProt P49589)	-0.0417
